Laboratory results reported in article PMC10777497.
Results are given in words; binding and its absence hold for the method and conditions named. In cells and extracts the contact can be indirect. Some results given as binding are weak or reduced against the parent protein; the word gives no strength. Sequences can lack the tags named with a protein.

Chains of the proteins cited; added tags and fusions are not shown. Lines headed by an entry give the natural chain unless they say otherwise; changes in a name come on top. Residues count along the entry.
UniProt P06761: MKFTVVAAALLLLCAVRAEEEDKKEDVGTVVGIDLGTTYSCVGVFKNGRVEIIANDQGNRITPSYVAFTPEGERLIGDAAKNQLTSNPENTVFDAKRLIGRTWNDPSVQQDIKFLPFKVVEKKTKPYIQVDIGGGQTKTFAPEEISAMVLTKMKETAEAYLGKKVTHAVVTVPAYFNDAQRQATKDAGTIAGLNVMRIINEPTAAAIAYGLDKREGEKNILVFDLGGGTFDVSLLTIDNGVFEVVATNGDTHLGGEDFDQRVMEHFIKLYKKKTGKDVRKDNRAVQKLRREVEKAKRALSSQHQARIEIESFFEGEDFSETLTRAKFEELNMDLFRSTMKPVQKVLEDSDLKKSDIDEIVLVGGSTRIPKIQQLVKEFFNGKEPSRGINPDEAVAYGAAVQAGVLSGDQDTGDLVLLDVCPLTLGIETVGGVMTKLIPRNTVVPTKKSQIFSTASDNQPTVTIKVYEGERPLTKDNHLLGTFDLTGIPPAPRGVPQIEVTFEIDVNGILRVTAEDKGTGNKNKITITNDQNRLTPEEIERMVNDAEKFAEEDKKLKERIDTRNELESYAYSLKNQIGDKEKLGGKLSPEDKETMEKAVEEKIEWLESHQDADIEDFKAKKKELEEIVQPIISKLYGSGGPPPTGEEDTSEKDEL
GST-GRP78-FL: residues 28-654 of P06761
GST-GRP78-NBD: residues 28-405 of P06761
GST-GRP78-SBD: residues 422-654 of P06761

Experiments:
Assay in all cases: pull-down; GST pull-down: GST-GRP78 proteins purified on glutathione Sepharose 4B beads, rotated with Flag-VEGF-B from lysed transfected 293T cells at 4 °C for 4 h, three washes, western blot; only the target purified
GST-GRP78-FL (rat) = GST-GRP78-FL (rat) (UniProt P06761)
GST-GRP78-NBD (rat) = GST-GRP78-NBD (rat) (UniProt P06761)
GST-GRP78-SBD (rat) = GST-GRP78-SBD (rat) (UniProt P06761)

Measured: binding

B1: Flag-VEGF-B (protein, UniProt O35485 22-207)
chain: PVSQFDGPSHQKKVVSWIDVYARATCQPREVVVPLSMELMGNVVKQLVPSCVTVQRCGGCCPDDGLECVPIGQHQVRMQILMIQYPSSQLGEMSLEEHSQCECRPKRKESAVKPDRVAIPHHRPQPRSVLSWDSAPGASSPADIIHPTPAPGPSAHAAPSAVSALIPGPAVAAADAAASSIAKGGA
binds: all assays above
